Results as given in PubChem BioAssay AID2685 (National Center for Advancing Translational Sciences (NCATS), 2010).
The list shows a part of the results. These are further read-outs of the screen, such as a control signal, another cell line or another target. No call is given for them. Most of these compounds were active or inconclusive in the main read-out, so they are no random draw. The note in brackets gives the kind of curve behind each potency; many fits are weak.

Experiment: qHTS Assay for Lipid Storage Modulators in Drosophila S3 Cells;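 as to cell number change: cells counted by Cell Tracker Red CMTPX staining in the red channel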
Settings: BODIPY lipid droplet fluorescence, 18-24 h; for cell number change: measured here: cell count max response, cells fed with added oleic acid
Outline: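 Laser-scanning cytometry quantifies lipid droplet accumulation (500–530 nm total intensity; droplet/cell object ratio) in oleic acid-fed (400 uM added) Drosophila S3 cells treated with a concentration series. 20 uM Triacsin C defined 100% inhibition.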

[1] = measured here: lipid fluorescence (Fed channel) AC50, cells fed with added oleic acid
[2] = measured here: cell number channel AC50, cells fed with added oleic acid

SMILES	cell number change	AC50 [1]	AC50 [2]
COC(C[C@H](O)[C@H](C)[C@@H](O)COCc1ccccc1)OC	20.6%	18.4 µM [rising, single point]	–
Cc1cccc(N(CC(=O)NC2CC3CCC2C3)S(=O)(=O)c2ccccc2)c1 (stereo not drawn)	–	29.1 µM [falling, single point]	–
Cc1nn(-c2ccc(F)cc2)c2nc(N)c(C#N)c(-c3cccs3)c12	–	1.84 µM [rising, partial curve]	2.06 µM [rising, partial curve]
Cc1cc2c(cn1)C(CCC#N)(CCC#N)c1ccccc1-2	-12.9%	0.58 µM [falling, single point]	–
CCN1CCN(C(=O)CN2C(=O)c3ccccc3S2(=O)=O)CC1	-21.9%	–	–
CN1CCN(c2ccc(NC(=O)c3ccc(C(F)(F)F)cc3)cn2)CC1	24.9%	–	–
Cc1cc(C)c(COc2ccc(/C=N/n3c(C)n[nH]c3=S)cc2)c(C)c1	-51%	0.517 µM [falling, single point]	20.6 µM [falling, single point]
Oc1c(Br)cc(Cl)cc1C=Nc1ccccc1Br	-8.79%	0.92 µM [falling, full curve, poor fit]	–
O=S(=O)(c1ccc(F)c(F)c1)N1CCCc2ccccc21	-0.901%	–	–
COc1ccc(-c2nnn(CC(=O)N(CCN3CCOCC3)C(C(=O)NC3CCCCC3)c3ccco3)n2)cc1 (stereo not drawn)	22.7%	0.00731 µM [rising, full curve, poor fit]	–
CCN(CCCNC(=O)COc1cc(=O)n(CC)c2ccccc12)Cc1ccccc1	–	0.731 µM [falling, single point]	–
O=C(Nc1ccnc(-c2cccnc2)n1)c1ccccc1Cl	14.3%	29.1 µM [rising, single point]	–
CCN1CCN(C(C(=O)NC2CCCC2)c2cc3c(cc2[N+](=O)[O-])OCO3)CC1 (stereo not drawn)	–	0.731 µM [rising, single point]	–
COc1ccc(C(=O)NCC(=O)OCC(=O)N2CCC(C)CC2)cc1OC	27.3%	29.1 µM [falling, single point]	–
COCC1CCCN(Cc2nc(-c3ccc4c(c3)OCO4)no2)C1 (stereo not drawn)	22.1%	–	–
CC(Oc1ccccc1F)C(=O)NNC(=O)c1ccc(F)c(S(=O)(=O)N2CCOCC2)c1 (stereo not drawn)	-0.85%	6.51 µM [falling, single point]	0.13 µM [falling, full curve, poor fit]
COC(=O)CN1C(=O)[C@H]2[C@@H](/C=C/c3ccccc3)N3C(=O)CN(Cc4ccccc4)C(=O)[C@@]3(C)[C@H]2C1=O	23.7%	–	–

3 compounds already listed, arranged by number of heavy atoms, falling:
SMILES	cell number change	AC50 [1]	AC50 [2]
CC(Oc1ccccc1F)C(=O)NNC(=O)c1ccc(F)c(S(=O)(=O)N2CCOCC2)c1 (stereo not drawn)	-0.85%	6.51 µM [falling, single point]	0.13 µM [falling, full curve, poor fit]
Cc1cc2c(cn1)C(CCC#N)(CCC#N)c1ccccc1-2	-12.9%	0.58 µM [falling, single point]	–
Oc1c(Br)cc(Cl)cc1C=Nc1ccccc1Br	-8.79%	0.92 µM [falling, full curve, poor fit]	–
